Measured values taken from patent publication US20250250361A1, “ANTI-PLA2G10 ANTIBODIES AND METHODS OF USE” (Yale University, priority 2022, published 2025).
These are yes or no findings as the source states them, for the method shown. Some binding calls cover weakened binding; strength is not graded here.

How the values were obtained:
[1] = target: T1, mouse PLA2G10 (NP285) (mouse) (UniProt Q9QXX3); experiment: one-way ELISA (FIG. 1B)
T1 sequence (looked up): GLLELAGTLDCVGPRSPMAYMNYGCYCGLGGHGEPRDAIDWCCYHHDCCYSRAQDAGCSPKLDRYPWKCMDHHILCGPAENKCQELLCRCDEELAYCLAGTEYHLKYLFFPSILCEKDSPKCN

[2] = target: T1, mouse PLA2G10 (NP285) (mouse); experiment: one-way ELISA, plates coated with mouse PLA2G10 (NP285)

B1: anti-PLA2G10 antibody 1C11 (mouse IgG2a) (antibody, V domains shown)
VH: QVTLKESGPGILHPSQTLSLTCSFSGFSLNTFGLGVGWVRQPSGKGQEWLAHIWWDDDRYYNPPLKSRLTISKDPSKNQVFLTIPNVNTANTATYYCTQILPHWVAYWGQGTTLTVSS
VL: DIQMNQSPSSLSASLGDTITISCHASQNINVWLSWYQQKPGNIPKLLIYKASNLHTGVPSRFSGSGSGTGFTFTISSLQPEDIATYFCQQGQSYPFTFGGGTKLELK
notes: also called 1C11 antibody; anti-PLA2G10 mAb IC11
For B1, which binding [1] is on record?
Its binding is “binds”.

What about the binding [2] of the same binder?
Its binding is “binds”.
